Experimental data reported in US20040091974A1.
These are yes or no findings as the source states them, for the method shown. Some entries that bind do so weakly or less than the wild type.

Tests used:
[1] = target: human HLA-DR on human cells (HLA-DR positive cell strains, peripheral blood mononuclear cells, mature dendritic cells) (human); assay: flow cytometry on HLA-DR positive cells, as in Example 10
[2] = target: HLA-DR protein purified from the lymphoma cell SKW 6.4 (human); assay: Western blot of HLA-DR protein purified from SKW 6.4, nonreducing
[3] = target: T1, 13-mer peptide, amino acids 63 to 75 of the HLA-DR β chain (DRB1*15011) (human); assay: SPOT 13-mer peptide array on cellulose membrane, chemiluminescence
T1 sequence (peptide, N-terminus acetylated; bound to a cellulose membrane through the C-terminus): SQKDILEQARAAV

Measured: binding

B1: HD8 (antibody, IgG2, V domains shown)
VH: QVQLQHSGPGLVKPSQTLSLTCAISGDSVSSNSASWNWIRQSPSRGLEWLGRTYYRSKWYNDYAVSVKSRIVINPDTSKNQFSLQLNSVTPEDTAVYYCARENFYGSETCHKKYYCYGMDVWGQGTTVTVSS
VL: AIQLTQSPSSLSASVGDRVTITCRASQGISSALAWYQQKPGKAPKLLIYDASSLESGVPSRFSGSGSGTDFTLTISSLQPEDFATYYCQQFNSFPLTFGGGTKVEIK
binds: all assays above
